Test results taken from patent US8057829B2, “Methods for repelling insects using sesquiterpene hydrocarbons and their derivatives” (Sterling International Inc., priority 2008, dated 2011).
Some entries share one result that the patent states for a list of compounds. Some ranges recur; such a range may be that of the whole group of compounds.

system: houseflies; assay: Laboratory sticky trap bioassay of spatial repellency with egg powder attractant; format: in vivo, housefly (Musca domestica); conditions: both sexes; FIGS. 11-13; range stated for the compounds together
Description: Laboratory bioassay tests were carried out to investigate the efficacy of some of the EAD-active compounds described above to act as spatial repellents against several insects. The procedure for the bioassay tests is described in Example 2 below. Briefly stated, the bioassay included using egg powder (EP) as an attractant for flies, while the compound whose insect repellency was being tested was placed in proximity to the egg powder. In FIGS. 11-13, the bioassay was carried out on houseflies using devices known by the designation Trécé Pherocon® VI sticky traps.
The following lab bioassay tests were employed to illustrate the efficacy of the compounds to effectively act as spatial repellents for flies. Three sets of tests were conducted in a fly testing room (23° C., 70% RH, and 12/12 (L/D) light regime illuminated by fluorescent lights). Two sets of tests were carried out using Trécé Pherocon® VI traps with sticky inserts, which were set up on poles evenly spaced on a rotating table. The traps were ca. 1 m above a table surface, and ca. 1 m apart from each other. Two grams of egg powder in a white cap (4 cm in diameter, 0.5 cm in height) used as an attractant was put on the center of the sticky insert in the sticky trap. The potential repellent candidate chemicals were loaded into polyethylene bags, and were hung under the inner roof of the traps, 1-1.5 cm above the egg powder attractant. A control had the empty white cap and blank polyethylene bag, while the positive control had only the egg powder and an empty polyethylene bag. The test table was rotated 1.5 r.p.h. […] About 200-300 houseflies (2-3 days old) were released into the testing room for each test. Tests were normally run from 8:00 am to 5:00 pm, and the numbers of houseflies caught in each trap were counted after each test. The results of these tests are shown in FIGS. 11-13 and described above.

SMILES | reduction of trap catches of houseflies
C=C1C2CCC3[C@H]2C(C)(C)CCC[C@]13C (single isomer, unassigned; (+)) [(+)-Longifolene] | 50-95%
C=C1CC/C=C(/C)CC[C@@H]2[C@@H]1CC2(C)C [Isocaryophyllene, isocaryophyllene] | 50-95%
C=C1CC/C=C(\C)CC[C@@H]2[C@@H]1CC2(C)C [β-Caryophyllene, β-caryophyllene] | 50-95%
CC1(C)C2=CCCC(C)(C)C23CCC1C3 (single isomer, unassigned; (-)) [(−)-isolongifolene, 2,2,7,7-tetramethyltricyclo undec-5-ene] | 50-95%
